Measurements: PubChem BioAssay AID504444 (National Center for Advancing Translational Sciences (NCATS), 2011)
Hit rate of the full screen: of about 360,000 compounds, about 7,500 (2.1%) were called active. Inconclusive means that the source gave no clear call. Such entries were picked first, then a sample of the others. The call rests on the fitted dose curve; in most records, active means well fitted inhibition curve with a large enough effect; inconclusive means small, poorly fitted or top-dose-only effect, or effect the other way; inactive means flat fitted curve, though single readings scatter. Where the call is inconclusive, the potency comes from a doubtful curve fit.

Test: Nrf2 qHTS screen for inhibitors; further: nearly all actives have a fitted effect of over 60% in size
Conditions: A549 ARE-Fluc reporter, luciferase luminescence, 18-24 h; activity change, negative = inhibition: at 46 µM (top of the series)
How it was run: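 Two sequential reads on A549 ARE_Fluc cells exposed to compound for 18-24 h: a CellTiter-Fluor fluorescence read for viability, then a luciferase luminescence read for Nrf2/ARE activity.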
On the % scale 0 is the no-effect control and ±100 the full control effect; potency means the concentration at half of the fitted maximal effect.

| SMILES | Potency | activity change, negative = inhibition |
| --- | --- | --- |
| CN(C)c1ccnc2sc(C(=O)c3ccc(Br)cc3)c(N)c12 | inconclusive: 29.1 µM [activator, single point] |  |
| O=C(Nc1ccc(Cl)cc1)Nc1nc(-c2ccccc2)cs1 | inconclusive: 20.6 µM [falling, partial curve, poor fit] |  |
| CC(=O)NC(CC(=O)OCC(=O)c1c(N)n(CC(C)C)c(=O)n(C)c1=O)c1ccccc1 (stereo unspecified) | inconclusive: 18.4 µM [falling, partial curve] |  |
| Nc1nc(CSc2ccccn2)nc(Nc2ccccc2)n1 | inconclusive: 0.82 µM [activator, full curve] |  |
| COc1ccc(CN(Cc2cc3cc(C)ccc3[nH]c2=O)C(=O)N(C)C)cc1 |  | inactive: -2.3% |
| Cc1c(-n2cc(C(=O)O)c(=O)c3cc(F)c(N4CCCC(O)C4)c(F)c32)c(=O)n(-c2ccccc2)n1C (stereo unspecified) | inconclusive: 18.4 µM [activator, partial curve, poor fit] |  |
| CCOc1ccc(S(=O)(=O)N2CCN(c3ncccn3)CC2)cc1 |  | inactive: -12.2% |
| COc1ccc(OC)c(NC(=O)CCN2CCN(C)CC2)c1 |  | inactive: -5.25% |
| COc1ccc(Cl)cc1NC(=O)CN(C)CC(=O)Nc1cc(OC)c(OC)c(OC)c1 |  | inactive: 3.15% |
| CCNC(=O)C1CCCN(c2nn3cc(-c4ccc(C)cc4)nc3s2)C1 (stereo unspecified) | inconclusive: 1.16 µM [activator, full curve] |  |
| CCc1nc(Nc2ccccc2F)c2oc3ccccc3c2n1 | inconclusive: 29.1 µM [activator, single point] |  |
| CCC(C)S(=O)(=O)c1oc(-c2ccc(F)cc2)nc1S(=O)(=O)c1ccc(F)cc1 (stereo unspecified) | inconclusive: 29.1 µM [falling, single point] |  |
| CCc1ccc(NC(=O)Cn2c(=O)n(CCC(=O)NCCc3ccc(OC)c(OC)c3)c(=O)c3ccccc32)cc1 |  | inactive: -10.1% |
| COc1cc2c(cc1OC)CN(C(=S)Nc1ccc(OC(F)F)cc1)CC2 | inconclusive: 29.1 µM [falling, single point] |  |
| Cc1cc(C)cc(NC(=O)C2CCN(c3nc4ccccc4nc3C(F)(F)F)CC2)c1 | inconclusive: 29.1 µM [activator, single point] |  |
| O=C(N/N=C/c1cccs1)c1c[nH]c2ccccc12 | inconclusive: 4.61 µM [activator, full curve, poor fit] |  |
| OC(CNCc1ccco1)Cn1c2ccccc2c2ccccc21 (stereo unspecified) | inconclusive: 29.1 µM [falling, single point] |  |
| COc1cc([N+](=O)[O-])cc(/C=N/NC(=O)c2cc(-c3ccccc3)nc3ccccc23)c1O | inconclusive: 29.1 µM [falling, single point] |  |
| COc1cccc(N(CC(=O)NCCN2CCOCC2)S(=O)(=O)c2ccccc2)c1 |  | inactive: 14.7% |
| CCCN1C(=O)C2(C(C(=O)c3ccc(C)o3)=C(O)C(=O)N2CCCOC)c2ccccc21 (stereo unspecified) |  | inactive: -1.56% |
| CC(C)CC1CC(=O)OC1(C)C(=O)CSc1nc2ccccc2s1 (stereo unspecified) | inconclusive: 18.4 µM [activator, partial curve] |  |
| Cc1ccc(NC(=O)C2CCCN(S(=O)(=O)c3cccc4nsnc34)C2)c(C)c1 (stereo unspecified) |  | inactive: -29.8% |

| SMILES | Potency | activity change, negative = inhibition |
| --- | --- | --- |
| Cc1nc(NS(=O)(=O)c2ccc(Br)cc2)c2c3c(sc2n1)CCC3 | inconclusive: 9.2 µM [falling, partial curve, poor fit] |  |
| CN1CCN(C2(CNC(=O)COc3ccc(C(C)(C)C)cc3)CCCCC2)CC1 |  | inactive: 23.4% |
| Cc1cc(C(F)(F)F)c2c(C)nn(CCc3nn[nH]n3)c2n1 |  | inactive: -0.179% |
| Cc1cc(C)c2c(N)c(C(=O)N/N=C/c3cccs3)sc2n1 | inconclusive: 1.3 µM [activator, full curve, poor fit] |  |
| O=C(Cn1c(=O)n(-c2ccc(F)c(Cl)c2)c(=O)c2sc3ccccc3c21)NC1CCCCC1 |  | inactive: -2.85% |
| CC1=Nn2c(nnc2-c2n[nH]c3c2CCC3)SC1 | inconclusive: 0.231 µM [falling, full curve] |  |
| CCn1cc(C(=O)NCCc2ccc(Cl)cc2)c(=O)c2cc(S(=O)(=O)N(C)C)ccc21 |  | inactive: -3.39% |
| S=C(NCCC(c1ccccc1)c1ccccc1)Nc1cccc(Cl)c1 | inconclusive: 29.1 µM [falling, single point] |  |
| CC(=O)N1CCc2c(sc3c2c(=O)n(-c2ccccc2)c(=O)n3Cc2ccccc2Cl)C1 | inconclusive: 8.2 µM [falling, partial curve, poor fit] |  |
| c1ccc2oc(SCc3cn4ccsc4n3)nc2c1 | inconclusive: 2.82 µM [activator, full curve, poor fit] |  |
| O=S(=O)(c1nccs1)N1CCN(c2nc(-c3cccs3)nc3ccccc23)CC1 | inconclusive: 10.3 µM [falling, partial curve] |  |
| CCN1C(=O)[C@@H]2[C@@H](c3ccc(SC4CCCCC4)cc3)N3CCCC[C@@]3(C(=O)OC)[C@@H]2C1=O | inconclusive: 23.1 µM [falling, single point] |  |
| COc1cccc(NC(=S)N2CCC(c3ccc(C)cc3)C2)c1 (stereo unspecified) | inconclusive: 16.4 µM [activator, single point] |  |
| Cc1ccc(-c2csc3nnc(SCC(=O)NCc4ccc5c(c4)OCO5)n23)cc1 | inconclusive: 29.1 µM [falling, partial curve, poor fit] |  |
| Cc1ccc(C(=O)OCC(=O)NC(=O)c2cccn2C)cc1 | active: 1.3 µM |  |
| C/C(=N\NC(=O)c1cccnc1)c1cccc([N+](=O)[O-])c1 | inconclusive: 7.31 µM [activator, partial curve, poor fit] |  |
| COC(=O)Cc1c(O)ccn(Cc2ccc(F)cc2)c1=O | inconclusive: 29.1 µM [activator, single point] |  |
| Cn1c(-c2ccccc2)c[n+]2c1-c1ccccc1C2 | inconclusive: 2.91 µM [falling, full curve] |  |
| COc1cccc(CN2C(=O)[C@@H]3Cc4c([nH]c5ccccc45)C(C)(C)N3C2=O)c1 | inconclusive: 20.6 µM [falling, single point] |  |
| COC(=O)c1sccc1S(=O)(=O)N(CC(=O)Nc1cc(C)cc(C)c1)c1ccc(Cl)cc1 | inconclusive: 29.1 µM [falling, single point] |  |
| COc1ccc(-c2ccc(OC)c(C3C4C=CCC(C)C4C(=O)N3Cc3ccccc3)c2)cc1 (stereo unspecified) | inconclusive: 20.6 µM [falling, single point] |  |
| O=C(c1ccc(C#Cc2ccccc2)o1)N1CCN(c2ccccn2)CC1 | active: 18.4 µM |  |

A different layout for some results above.
Cc1cc(C(F)(F)F)c2c(C)nn(CCc3nn[nH]n3)c2n1
  activity change, negative = inhibition: inactive: -0.179%
O=C(Cn1c(=O)n(-c2ccc(F)c(Cl)c2)c(=O)c2sc3ccccc3c21)NC1CCCCC1
  activity change, negative = inhibition: inactive: -2.85%
Cc1ccc(-c2csc3nnc(SCC(=O)NCc4ccc5c(c4)OCO5)n23)cc1
  Potency: inconclusive: 29.1 µM [falling, partial curve, poor fit]
COc1ccc(-c2ccc(OC)c(C3C4C=CCC(C)C4C(=O)N3Cc3ccccc3)c2)cc1 (stereo unspecified)
  Potency: inconclusive: 20.6 µM [falling, single point]

More records.

| SMILES | Potency | activity change, negative = inhibition |
| --- | --- | --- |
| CCN1C(=O)/C(=C\N2CCN(C)CC2)SC1=S | inconclusive: 16.4 µM [activator, single point] |  |
| O=C(Nc1cccnc1Cl)c1cc2ccccc2o1 | inconclusive: 3.66 µM [activator, full curve] |  |
| COc1ccccc1N1CCN(CC(=O)Nc2ccc(S(=O)(=O)N3CCCCCC3)cc2)CC1 | inconclusive: 16.4 µM [falling, single point] |  |
| CCCCc1ccc(NC(=S)NCc2cccnc2)cc1 | inconclusive: 29.1 µM [falling, single point] |  |
| Cc1ccc2c(c1)-c1c(cnn1CC(=O)N1CCN(c3cccc(C(F)(F)F)c3)CC1)CO2 | inconclusive: 29.1 µM [falling, single point] |  |
| Fc1ccc(NC(=S)NN2CCOCC2)cc1Cl | inconclusive: 32.6 µM [activator, partial curve, poor fit] |  |
| Cc1ccc(S(=O)(=O)O/N=C2\CCCc3ccccc32)cc1 |  | inactive: 12.1% |
| Cc1ccc(C(=O)NCc2cccc(C(F)(F)F)c2)cc1S(=O)(=O)N1CCCCC1 | active: 3.66 µM |  |
| CC(=O)c1c(C)[nH]c(C(=O)OCC(=O)N2CCc3ccccc32)c1C | inconclusive: 1.84 µM [activator, partial curve, poor fit] |  |
| CCOC(=O)N1CCN(CC(=O)Nc2cc(OC)c(OC)cc2C#N)CC1 | inconclusive: 0.146 µM [activator, full curve, poor fit] |  |
| COc1ccc(/C=C/C(=O)N(C)c2ccccc2C(=O)O)cc1 | inconclusive: 25.9 µM [activator, partial curve, poor fit] |  |
| O=S(=O)(c1ccc(Br)cc1)n1ccc2ccccc21 | inconclusive: 23.1 µM [falling, partial curve, poor fit] |  |
| COc1ccc2c(c1)OC[C@H]1[C@H]2N2C(=O)c3ccc(F)cc3NC(=O)[C@@]2(C)[C@H]1c1ccccc1 | inconclusive: 32.6 µM [falling, single point] |  |
| Nc1nc2ccccc2n1/N=C/c1ccc([N+](=O)[O-])s1 | active: 14.6 µM |  |
| CC1CCN(C(=O)CNC(=O)c2ccc(Cl)cc2Cl)CC1 | inconclusive: 0.366 µM [activator, full curve, poor fit] |  |
| Nc1nn(-c2cccc(F)n2)cc1-c1ccc(Cl)cc1 | inconclusive: 18.4 µM [activator, partial curve] |  |
| CCC(C)(C)c1ccc(OCCCC[n+]2ccc(C)cc2)c(C(C)(C)CC)c1 | active: 13 µM |  |
| CC(=O)c1cnc2cc(-c3ccccc3)nn2c1C | inconclusive: 0.82 µM [activator, full curve] |  |
| Cc1nc2nc(COc3ccccc3)nn2c(C)c1Cl | inconclusive: 23.1 µM [activator, single point] |  |
| c1ccc(-n2nnnc2-c2cnc(-c3ccncc3)nc2-c2cccs2)cc1 |  | inactive: -1.94% |
| Cc1nc2ccccc2c(=O)n1N(c1ccccc1)c1ccccc1 | inconclusive: 20.6 µM [falling, partial curve, poor fit] |  |
| Cc1ccc(NC(=O)CNC(=O)c2ccco2)cc1 | inconclusive: 7.31 µM [activator, partial curve] |  |
